Reference: publication PMC5327418
Results are given in words; binding and its absence hold for the method and conditions named. Binding seen in cells or lysates may run through a third protein. These calls come from enrichment with a bait or labelling near it, and not all partners need be listed. Values belong to the binder of their own block, whether it stands above or below them.

By UniProt entry, the sequences of proteins in these tests, tags left out.
UniProt P32569: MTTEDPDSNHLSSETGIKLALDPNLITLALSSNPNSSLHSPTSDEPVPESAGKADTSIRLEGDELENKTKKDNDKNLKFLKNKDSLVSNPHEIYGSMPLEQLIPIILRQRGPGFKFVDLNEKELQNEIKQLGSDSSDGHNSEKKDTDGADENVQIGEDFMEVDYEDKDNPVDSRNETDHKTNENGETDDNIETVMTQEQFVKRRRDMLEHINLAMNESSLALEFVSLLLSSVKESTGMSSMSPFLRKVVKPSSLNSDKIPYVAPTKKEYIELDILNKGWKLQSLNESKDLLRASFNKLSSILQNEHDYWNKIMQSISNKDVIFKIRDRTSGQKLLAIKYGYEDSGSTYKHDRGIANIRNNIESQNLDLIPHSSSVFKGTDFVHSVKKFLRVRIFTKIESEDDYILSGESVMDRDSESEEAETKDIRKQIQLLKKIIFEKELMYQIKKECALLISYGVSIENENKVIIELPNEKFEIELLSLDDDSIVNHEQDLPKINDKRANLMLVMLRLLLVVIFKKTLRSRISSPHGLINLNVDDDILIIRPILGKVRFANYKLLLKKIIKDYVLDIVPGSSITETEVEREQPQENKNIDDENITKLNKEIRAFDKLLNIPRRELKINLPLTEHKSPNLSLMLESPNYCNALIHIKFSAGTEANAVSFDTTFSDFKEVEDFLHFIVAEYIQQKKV

Target: Med17-HA (S. cerevisiae (endogenous in S288c)) (UniProt P32569)
Experiment: affinity purification with mass spectrometry; CoIP of Med17-HA on anti-HA magnetic beads from cryoground yeast lysate, 2 h at 4 °C; 20 mM HEPES pH 7.5, 300 mM KOAc, 10% glycerol, 0.01% NP-40, 6 mM MnSO4, 1 mM DTT, Cyanase nuclease; parallel control CoIP from 15N-labelled wild type cells, mixing after purification (MAP); GeLC-MS/MS, three biological replicates

binding: binds
B1: Swc4 (protein, UniProt P53201 1-476)
chain: MSSSDIFDVLNIKQKSRSPTNGQVSVPSSSAANRPKPQVTGMQRELFNLLGENQPPVVIKSGNNFKEKMLSTSKPSPWSFVEFKANNSVTLRHWVKGSKELIGDTPKESPYSKFNQHLSIPSFTKEEYEAFMNENEGTQKSVESEKNHNENFTNEKKDESKNSWSFEEIEYLFNLCKKYDLRWFLIFDRYSYNNSRTLEDLKEKFYYTCRNYFKASDPSNPLLSSLNFSAEKEIERKKYLQRLLSRSAAEIAEEEALVVESKKFEMAAKRTLAERESLLRLLDSPHSDQTITQYLTSQGMSQLYNALLADKTRKRKHDLNIPENPWMKQQQQFAQHRQLQQLNVKKSEVKENLSPKKTKRQRQEMQTALKRKSESAYAEQLLKDFNSDERKALGVITHGEKLSPGVYLRSTKLSTFKPALQNKILAILQELSLPSRPVMPSFDVMERQEELLKKINTLIDLKKHVDKYEAGMSITK

binding: binds
B2: Yo11a (protein, UniProt Q92392 1-440)
chain: MESQQLSNYPQISHGSACASVTSKEVHTNQDPLDVSASKTEECEKASTKANSQQTTTPASSAVPENPHHASPQPASVPPPQNGPYPQQCMMTQNQANPSGWSFYGHPSMIPYTPYQMSPMYFPPGPQSQFPQYPSSVGTPLSTPSPESGNTFTDSSSADSDMTSTKKYVRPPPMLTSPNDFPNWVKTYIKFLQNSNLGGIIPTVNGKPVRQITDDELTFLYNTFQIFAPSQFLPTWVKDILSVDYTDIMKILSKSIEKMQSDTQEANDIVTLANLQYNGSTPADAFETKVTNIINRLNNNGIHINNKVACQLIMRGLSGEYKFLRYTRHRHLNMTVAELFLDIHAIYEEQQGSRNSKPNYRRNLSDEKNDSRSYTNTTKPKVIARNPQKTNNSKSKTARAHNVSTSNNSPSTDNDSISKSTTEPIQLNNKHDLHLRPGTY

binding: binds
B3: Yap1 (protein, UniProt P19880 1-650)
chain: MSVSTAKRSLDVVSPGSLAEFEGSKSRHDEIENEHRRTGTRDGEDSEQPKKKGSKTSKKQDLDPETKQKRTAQNRAAQRAFRERKERKMKELEKKVQSLESIQQQNEVEATFLRDQLITLVNELKKYRPETRNDSKVLEYLARRDPNLHFSKNNVNHSNSEPIDTPNDDIQENVKQKMNFTFQYPLDNDNDNDNSKNVGKQLPSPNDPSHSAPMPINQTQKKLSDATDSSSATLDSLSNSNDVLNNTPNSSTSMDWLDNVIYTNRFVSGDDGSNSKTKNLDSNMFSNDFNFENQFDEQVSEFCSKMNQVCGTRQCPIPKKPISALDKEVFASSSILSSNSPALTNTWESHSNITDNTPANVIATDATKYENSFSGFGRLGFDMSANHYVVNDNSTGSTDSTGSTGNKNKKNNNNSDDVLPFISESPFDMNQVTNFFSPGSTGIGNNAASNTNPSLLQSSKEDIPFINANLAFPDDNSTNIQLQPFSESQSQNKFDYDMFFRDSSKEGNNLFGEFLEDDDDDKKAANMSDDESSLIKNQLINEEPELPKQYLQSVPGNESEISQKNGSSLQNADKINNGNDNDNDNDVVPSKEGSLLRCSEIWDRITTHPKYSDIDVDGLCSELMAKAKCSERGVVINAEDVQLALNKHMN

binding: binds
B4: Imb3 (protein, UniProt P32337 1-1089)
chain: MSALPEEVNRTLLQIVQAFASPDNQIRSVAEKALSEEWITENNIEYLLTFLAEQAAFSQDTTVAALSAVLFRKLALKAPPSSKLMIMSKNITHIRKEVLAQIRSSLLKGFLSERADSIRHKLSDAIAECVQDDLPAWPELLQALIESLKSGNPNFRESSFRILTTVPYLITAVDINSILPIFQSGFTDASDNVKIAAVTAFVGYFKQLPKSEWSKLGILLPSLLNSLPRFLDDGKDDALASVFESLIELVELAPKLFKDMFDQIIQFTDMVIKNKDLEPPARTTALELLTVFSENAPQMCKSNQNYGQTLVMVTLIMMTEVSIDDDDAAEWIESDDTDDEEEVTYDHARQALDRVALKLGGEYLAAPLFQYLQQMITSTEWRERFAAMMALSSAAEGCADVLIGEIPKILDMVIPLINDPHPRVQYGCCNVLGQISTDFSPFIQRTAHDRILPALISKLTSECTSRVQTHAAAALVNFSEFASKDILEPYLDSLLTNLLVLLQSNKLYVQEQALTTIAFIAEAAKNKFIKYYDTLMPLLLNVLKVNNKDNSVLKGKCMECATLIGFAVGKEKFHEHSQELISILVALQNSDIDEDDALRSYLEQSWSRICRILGDDFVPLLPIVIPPLLITAKATQDVGLIEEEEAANFQQYPDWDVVQVQGKHIAIHTSVLDDKVSAMELLQSYATLLRGQFAVYVKEVMEEIALPSLDFYLHDGVRAAGATLIPILLSCLLAATGTQNEELVLLWHKASSKLIGGLMSEPMPEITQVYHNSLVNGIKVMGDNCLSEDQLAAFTKGVSANLTDTYERMQDRHGDGDEYNENIDEEEDFTDEDLLDEINKSIAAVLKTTNGHYLKNLENIWPMINTFLLDNEPILVIFALVVIGDLIQYGGEQTASMKNAFIPKVTECLISPDARIRQAASYIIGVCAQYAPSTYADVCIPTLDTLVQIVDFPGSKLEENRSSTENASAAIAKILYAYNSNIPNVDTYTANWFKTLPTITDKEAASFNYQFLSQLIENNSPIVCAQSNISAVVDSVIQALNERSLTEREGQTVISSVKKLLGFLPSSDAMAIFNRYPADIMEKVHKWFA

binding: binds
B5: Bdf1 (protein, UniProt P35817 1-686)
chain: MTDITPVQNDVDVNGNNVNDDVSSNLKRPIDQGDPSNGLAEEENPANNQLHLKKARLDGDALTSSPAGLAENGIEGATLAANGENGYNATGSGAEDEQQGLKKEEGGQGTKQEDLDENSKQELPMEVPKEPAPAPPPEPDMNNLPQNPIPKHQQKHALLAIKAVKRLKDARPFLQPVDPVKLDIPFYFNYIKRPMDLSTIERKLNVGAYEVPEQITEDFNLMVNNSIKFNGPNAGISQMARNIQASFEKHMLNMPAKDAPPVIAKGRRSSAQEDAPIVIRRAQTHNGRPKRTIHPPKSKDIYPYESKKPKSKRLQQAMKFCQSVLKELMAKKHASYNYPFLEPVDPVSMNLPTYFDYVKEPMDLGTIAKKLNDWQYQTMEDFERDVRLVFKNCYTFNPDGTIVNMMGHRLEEVFNSKWADRPNLDDYDSDEDSRTQGDYDDYESEYSESDIDETIITNPAIQYLEEQLARMKVELQQLKKQELEKIRKERRLARGSKKRGKRSKGRSGSKNASSKGRRDKKNKLKTVVTYDMKRIITERINDLPTSKLERAIDIIKKSMPNISEDDEVELDLDTLDNHTILTLYNTFFRQYESSSGASNGLDGTSGVTRDASSLSPTSAGSRKRRSKALSQEEQSRQIEKIKNKLAILDSASPLSQNGSPGQIQSAAHNGFSSSSDDDVSSESEEE

binding: binds
B6: Isw2 (protein, UniProt Q08773 1-1120)
chain: MTTQQEEQRSDTKNSKSESPSEVLVDTLDSKSNGSSDDDNIGQSEELSDKEIYTVEDRPPEYWAQRKKKFVLDVDPKYAKQKDKSDTYKRFKYLLGVTDLFRHFIGIKAKHDKNIQKLLKQLDSDANKLSKSHSTVSSSSRHHRKTEKEEDAELMADEEEEIVDTYQEDIFVSESPSFVKSGKLRDYQVQGLNWLISLHENKLSGILADEMGLGKTLQTISFLGYLRYVKQIEGPFLIIVPKSTLDNWRREFLKWTPNVNVLVLHGDKDTRADIVRNIILEARFDVLITSYEMVIREKNALKRLAWQYIVIDEAHRIKNEQSALSQIIRLFYSKNRLLITGTPLQNNLHELWALLNFLLPDIFGDSELFDEWFEQNNSEQDQEIVIQQLHSVLNPFLLRRVKADVEKSLLPKIETNVYVGMTDMQIQWYKSLLEKDIDAVNGAVGKREGKTRLLNIVMQLRKCCNHPYLFEGAEPGPPYTTDEHLIFNSGKMIILDKLLKRLKEKGSRVLIFSQMSRLLDILEDYCYFRDFEYCRIDGSTSHEERIEAIDEYNKPNSEKFVFLLTTRAGGLGINLVTADTVILFDSDWNPQADLQAMDRAHRIGQKKQVHVYRFVTENAIEEKVIERAAQKLRLDQLVIQQGTGKKTASLGNSKDDLLDMIQFGAKNMFEKKASKVTVDADIDDILKKGEQKTQELNAKYQSLGLDDLQKFNGIENQSAYEWNGKSFQKKSNDKVVEWINPSRRERRREQTTYSVDDYYKEIIGGGSKSASKQTPQPKAPRAPKVIHGQDFQFFPKELDALQEKEQLYFKKKVNYKVTSYDITGDIRNEGSDAEEEEGEYKNAANTEGHKGHEELKRRIEEEQEKINSAPDFTQEDELRKQELISKAFTNWNKRDFMAFINACAKYGRDDMENIKKSIDSKTPEEVEVYAKIFWERLKEINGWEKYLHNVELGEKKNEKLKFQETLLRQKIEQCKHPLHELIIQYPPNNARRTYNTLEDKFLLLAVNKYGLRADKLYEKLKQEIMMSDLFTFDWFIKTRTVHELSKRVHTLLTLIVREYEQPDANKKKRSRTSATREDTPLSQNESTRASTVPNLPTTMVTNQKDTNDHVDKRTKIDQEA

binding: binds
B7: Ioc2 (protein, UniProt Q12072 1-812)
chain: MRTKRTRGTRNVGASMPAGAANADSEDWKEYVSEDIIAQLNKHQLPYSEILDEKIADLANHWHFQYVMAWLSNVCESYTTTTFNTDQYGGSSTKCLWKNIKFDEGVFVTDVFSKIDGKDSNYYNDEVDVDEGSQNLYDRIRLQLLHQLAGNKSGQLKDWNVIVNHHLQNSSAYSDLVTDLPFLELEIARQFDIIYSIIKLIEMKNMIFKNYLANNLHLFTFSEVILDDDNSGGEEMKSLFALPNVGVLVKKTIHRVKEGSSSQVSQTLNIPIKLQNCTIKESDPDIPDSVELIHLEYSHDIDAYLQSITIDYDVITTNWGSMLEYWSENKSSKAIDEFITNLIPVYAEHRLYSAKLLANREKERAIAELMTRRKRSSRLVAKEEENKKKDLESEWFEKLDEREQFIRHRNKLVSKEIKKIKDLLWNQLWQLYDQDYRDEKLTRRNELKDRSGSGTPFFETSLGREEDNPLNEIDIGVLDHGPNFQSSIIPVEPPIPGTVGPLQTGDVPELPSDFCITKEELDELANYGIFTPQQEPDNQDSVFQCPGEPELAPMIITEDTETDLFNNRPLICCDHCYRWQHWECQPPKIIELISSTTKSPQHTLSQRDFGVIIMGNSHGNRRSSRRPQSTLEPSTKSSRPTDKRKPLSECSTFICAWCIRDLELELRNIFVPELKIIRAKQRKQQEDRERRKKMKEEKKRLEELAKKRELTESVSPPVFNNAFANMSSSTTPSIAAYEKTNPAINPAPNVNAAHPIITYSQQTGSKTVPQAPQAPQTSQASIQPQQQQQQQQQQQPLHPKEQNFHFQFPPTN

binding: binds
B8: Gcr2 (protein, UniProt Q01722 1-534)
chain: MHHQTKLDVFIIRAYNLLSNESVISGASLQSVTNSPQTTTNTPSGMVNGAVGTGIANPTGLMGSDSTPNIDEIITSTGSNALTKTNSDSANGTPNGNSSSTSAISNASNPATTGNNASSSATSNGIYTQAQYSQLFAKISKLYNATLSSGSIDDRSTSPKSAIELYQRFQQMIKELELSFDASPYAKYFRRLDGRLWQIKTDSELENDELWRLVSMSIFTVFDPQTGQILTQGRRKGNSLNTSTKGSPSDLQGINNGNNNGNNGNIGNGSNIKNYGNKNMPNNRTKKRGTRVAKNAKNGKNNKNSNKERNGITDTSAFSNTTISNPGTNMLFDPSLSQQLQKRLQTLSQDVNSRSLTGYYTQPTSPGSGGFEFGLSHADLNPNASSNTMGYNTMSNNGSHSWKRRSLGSLDVNTLDDEAVEELLQLTNTSKRQRPMTTAAEGALINDGPDTNLNANNTQMKVDLNPSNSMGPIDTEAVIRPLKEAYDAIISEKGQRIVQLERELELQRQETQWLRKMLIEDMGCVRSMLRDLQR
